What all share (experiment): cells
One assay relates to WSU-DLCL2. The following applies: Homo sapiens.
Another assay deals with KARPAS-422. The following applies: Homo sapiens.
In another assay the test system is SU-DHL-10. The settings on record: Homo sapiens.
The next assay concerns SU-DHL-6. The following applies: Homo sapiens.
A further assay has as its system OCI-LY19. The settings on record: Homo sapiens, OCI-LY19, 336 h, read-out: IC50 Taz 14d.
The test system of another assay is HT. The following applies: Homo sapiens.
For the next assay, the system named is Farage. The settings on record: 336 h, read-out: IC50 Taz 14d.
Another assay concerns OCI-LY7. The following applies: Homo sapiens.
A further assay relates to SU-DHL5. The following applies: Homo sapiens.
In another assay the test system is Toledo. The following applies: Homo sapiens.
The next assay relates to TMD8. The following applies: Homo sapiens.
The next assay relates to OCI-LY3. The settings on record: Homo sapiens.
For the next assay, the system named is SU-DHL2. The following applies: Homo sapiens.

Each structure is given as a SMILES string. Read-outs that look alike come from different tables or passages of the source.

The source of these data is patent publication US11147819B2, “EZH2 inhibitors for treating cancer” (Epizyme, Inc., priority 2016, dated 2021).

For `CCN(c1cc(-c2ccc(CN3CCOCC3)cc2)cc(C(=O)NCc2c(C)cc(C)[nH]c2=O)c1C)C1CCOCC1` [tazemetostat], the IC50 in the assay on WSU-DLCL2 (WSUDLCL2, 168 h, read-out: IC50 Taz 7d) was 100 nM; in the assay on WSU-DLCL2 (WSUDLCL2, 336 h, read-out: IC50 Taz 14d) it was 86 nM; with KARPAS-422 (KARPAS-422, 168 h, read-out: IC50 Taz 7d), 100 nM; with KARPAS-422 (KARPAS-422, 336 h, read-out: IC50 Taz 14d) it was 18 nM; in the assay on SU-DHL-10 (SU-DHL10, 168 h, read-out: IC50 Taz 7d), 50 nM; in the assay on SU-DHL-10 (SU-DHL10, 336 h, read-out: IC50 Taz 14d), 58 nM. In addition, the IC50 with SU-DHL-6 (SU-DHL-6, 168 h, read-out: IC50 Taz 7d) worked out at 100 nM; in the assay on SU-DHL-6 (SU-DHL-6, 336 h, read-out: IC50 Taz 14d), 47 nM; in the assay with OCI-LY19, 6200 nM; in the assay with HT (168 h, read-out: IC50 Taz 7d) it was 500 nM; in the assay with HT (336 h, read-out: IC50 Taz 14d), 140 nM; with Farage, 99 nM. For the same compound, the IC50 in the assay on OCI-LY7 (OCI-Ly7, 168 h, read-out: IC50 Taz 7d) is 1500 nM; with OCI-LY7 (OCI-Ly7, 336 h, read-out: IC50 Taz 14d) it was 1400 nM; in the assay with SU-DHL5 (SU-DHL-5, 168 h, read-out: IC50 Taz 7d) it was 3800 nM; in the assay with SU-DHL5 (SU-DHL-5, 336 h, read-out: IC50 Taz 14d) it was 2100 nM; in the assay on Toledo (168 h, read-out: IC50 Taz 7d), more than 10000 nM; with Toledo (336 h, read-out: IC50 Taz 14d), 7600 nM. For the same compound, the IC50 was 5500 nM in the assay on TMD8 (TMD8, 168 h, read-out: IC50 Taz 7d); 2600 nM with TMD8 (TMD8, 336 h, read-out: IC50 Taz 14d); 5100 nM with OCI-LY3 (OCI-Ly3, 168 h, read-out: IC50 Taz 7d); 820000 nM in the assay on OCI-LY3 (OCI-Ly3, 336 h, read-out: IC50 Taz 14d); 1300 nM in the assay on SU-DHL2 (SU-DHL-2, 168 h, read-out: IC50 Taz 7d); 230000 nM in the assay on SU-DHL2 (SU-DHL-2, 336 h, read-out: IC50 Taz 14d).
